Assay results taken from article PMC12003009.
These are yes or no findings as the source states them, for the method shown. In cells and extracts the contact can be indirect. Some results given as binding are weak or reduced against the parent protein; the word gives no strength.

Target: T1, endogenous Bcl3 (B cell leukemia/lymphoma 3) of mouse liver (mouse (endogenous in liver)) (UniProt Q9Z2F6)
T1 sequence: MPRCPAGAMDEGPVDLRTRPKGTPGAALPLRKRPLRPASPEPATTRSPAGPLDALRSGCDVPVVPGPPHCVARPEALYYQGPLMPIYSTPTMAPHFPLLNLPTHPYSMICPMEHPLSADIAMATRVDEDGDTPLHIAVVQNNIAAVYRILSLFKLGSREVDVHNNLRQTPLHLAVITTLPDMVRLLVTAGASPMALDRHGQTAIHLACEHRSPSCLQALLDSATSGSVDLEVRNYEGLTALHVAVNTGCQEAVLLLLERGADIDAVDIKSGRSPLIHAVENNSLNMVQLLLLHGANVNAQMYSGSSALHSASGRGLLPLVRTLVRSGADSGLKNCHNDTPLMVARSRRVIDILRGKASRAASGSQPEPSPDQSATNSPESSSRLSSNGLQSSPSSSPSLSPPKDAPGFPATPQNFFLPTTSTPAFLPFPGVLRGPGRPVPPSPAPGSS
Assay: co-IP; endogenous Bcl3 immunoprecipitated with an anti-Bcl3 antibody from liver homogenates of WT mice; Nrf2 detected by Western blotting

B1: endogenous Nrf2 (nuclear factor erythroid 2 like 2) of mouse liver (protein, UniProt Q60795 1-597)
chain: MMDLELPPPGLQSQQDMDLIDILWRQDIDLGVSREVFDFSQRQKDYELEKQKKLEKERQEQLQKEQEKAFFAQFQLDEETGEFLPIQPAQHIQTDTSGSASYSQVAHIPKQDALYFEDCMQLLAETFPFVDDHESLALDIPSHAESSVFTAPHQAQSLNSSLEAAMTDLSSIEQDMEQVWQELFSIPELQCLNTENKQLADTTAVPSPEATLTEMDSNYHFYSSISSLEKEVGNCGPHFLHGFEDSFSSILSTDDASQLTSLDSNPTLNTDFGDEFYSAFIAEPSDGGSMPSSAAISQSLSELLDGTIEGCDLSLCKAFNPKHAEGTMEFNDSDSGISLNTSPSRASPEHSVESSIYGDPPPGFSDSEMEELDSAPGSVKQNGPKAQPAHSPGDTVQPLSPAQGHSAPMRESQCENTTKKEVPVSPGHQKAPFTKDKHSSRLEAHLTRDELRAKALHIPFPVEKIINLPVDDFNEMMSKEQFNEAQLALIRDIRRRGKNKVAAQNCRKRKLENIVELEQDLGHLKDEREKLLREKGENDRNLHLLKRRLSTLYLEVFSMLRDEDGKPYSPSEYSLQQTRDGNVFLVPKSKKPDTKKN
Q: For B1, which binding is on record?
A: binds
